According to publication doi:10.1101/2022.10.18.512811 (bioRxiv, 2022):
These are yes or no findings as the source states them, for the method shown. In cells and extracts the contact can be indirect. Some results given as binding are weak or reduced against the parent protein; the word gives no strength. For some of these results: Sequences can lack the tags named with a protein.

Tests used:
[1] = target: T1, purified, soluble, C-terminal His×6-tagged NlpE (E. coli) (UniProt P40710); test: pull-down
T1 sequence: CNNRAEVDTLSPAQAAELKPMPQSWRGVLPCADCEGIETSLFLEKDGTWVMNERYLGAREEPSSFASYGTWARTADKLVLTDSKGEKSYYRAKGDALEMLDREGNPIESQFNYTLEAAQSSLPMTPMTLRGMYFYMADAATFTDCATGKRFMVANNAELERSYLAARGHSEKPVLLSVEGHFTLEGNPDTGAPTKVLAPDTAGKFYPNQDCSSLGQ

[2] = target: T2, over-produced NlpE (NlpE-overexpressing cells of the co-immunoprecipitation) (E. coli) (UniProt P40710); test: co-IP
T2 sequence: T1 sequence

[3] = target: T3, NlpE at native levels of expression (E. coli (endogenous)) (UniProt P40710); test: co-IP
T3 sequence (chain, lipid-modified N-terminal cysteine (Cys21)): T1 sequence

[4] = target: T4, C-terminally His-tagged WT NlpE expressed from pTrc99A (E. coli) (UniProt P40710); test: cross-linking
T4 sequence (chain, lipid-modified N-terminal cysteine (Cys21)): T1 sequence

binding [1]: binds
binding [2]: binds
binding [3]: binds
binding [4]: binds
B1: OmpA (protein, UniProt P0A910 22-346)
chain: APKDNTWYTGAKLGWSQYHDTGFINNNGPTHENQLGAGAFGGYQVNPYVGFEMGYDWLGRMPYKGSVENGAYKAQGVQLTAKLGYPITDDLDIYTRLGGMVWRADTKSNVYGKNHDTGVSPVFAGGVEYAITPEIATRLEYQWTNNIGDAHTIGTRPDNGMLSLGVSYRFGQGEAAPVVAPAPAPAPEVQTKHFTLKSDVLFNFNKATLKPEGQAALDQLYSQLSNLDPKDGSVVVLGYTDRIGSDAYNQGLSERRAQSVVDYLISKGIPADKISARGMGESNPVTGNTCDNVKQRAALIDCLAPDRRVEIEVKGIKDVVTQPQA
